PubChem BioAssay AID1259308, NCATS – 2017

- Aim: 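Candidate targets for better recombinant protein yield in mammalian cells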 (primary screen)
- Cells: human HEK293 embryonic kidney cells stably expressing firefly luciferase (HEK-CMV-Luc2-Hygro)
- Reagent: single siRNA against human genes, 0.8 pmol siRNA per well
- Duration: 72 h
- Detection: 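Reporter luminescence and viable-cell signal on separate replicate plates, given as percent of non-targeting control and median/MAD z-scores, plus per-cell luciferase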
- Scale: total luciferase, z-score and total luciferase, % of control: higher = more reporter protein produced
- Active means: 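Active when the median/MAD z-score for overall luciferase is greater than 3; a gene was taken forward for validation with new siRNAs if at least two of its three siRNAs passed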
- Calls: active = raised luciferase; inactive = no rise
This is one part, drawn at random, of about 59,000 deposited reagents. In the full data, about 1,510 (2.6%) were called active. 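Calls use total luciferase alone and ignore viability, so some active siRNAs may act by altering cell number.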 Unmarked entries are inactive. The numbers tell different reagents against one gene apart. Further read-outs or replicates are left out here.

Gene,siRNA no.,"total luciferase, z-score","total luciferase, % of control"
MX1 (GeneID 4599),1,-0.158,78.7
MX1 (GeneID 4599),2,0.313,88.1
MX1 (GeneID 4599),3,4.17 (active),165
PDGFB (GeneID 5155),1,0.48,91.4
PDGFB (GeneID 5155),2,-1.06,60.8
PDGFB (GeneID 5155),3,2.07,123
FEV (GeneID 54738),1,-0.36,74.7
FEV (GeneID 54738),2,-0.32,75.5
FEV (GeneID 54738),3,-0.101,79.9
TPRX1 (GeneID 284355),1,0.616,94.1
TPRX1 (GeneID 284355),2,0.587,93.6
TPRX1 (GeneID 284355),3,-2.17,38.7
AMMECR1 (GeneID 9949),1,-0.613,69.7
AMMECR1 (GeneID 9949),2,1.27,107
AMMECR1 (GeneID 9949),3,0.734,96.5
SPRY3 (GeneID 10251),1,-0.498,72
SPRY3 (GeneID 10251),2,-1.4,54
SPRY3 (GeneID 10251),3,-1.13,59.4
PELI1 (GeneID 57162),1,0.618,94.2
PELI1 (GeneID 57162),2,0.886,99.5
PELI1 (GeneID 57162),3,-0.714,67.7
IL3 (GeneID 3562),1,-0.58,70.4
IL3 (GeneID 3562),2,0.29,87.7
IL3 (GeneID 3562),3,0.278,87.4
TSPAN17 (GeneID 26262),1,-2.21,37.9
TSPAN17 (GeneID 26262),2,1.38,109
TSPAN17 (GeneID 26262),3,-0.535,71.2
GUCA2B (GeneID 2981),1,-0.264,76.6
GUCA2B (GeneID 2981),2,-0.197,78
GUCA2B (GeneID 2981),3,-1.87,44.7
NTNG1 (GeneID 22854),1,-0.588,70.2
NTNG1 (GeneID 22854),2,0.252,86.9
NTNG1 (GeneID 22854),3,-0.463,72.7
NPAS3 (GeneID 64067),1,-0.1,79.9
NPAS3 (GeneID 64067),2,-1.22,57.7
NPAS3 (GeneID 64067),3,-0.869,64.6
HSD17B8 (GeneID 7923),1,0.504,91.9
HSD17B8 (GeneID 7923),2,-2.21,38
HSD17B8 (GeneID 7923),3,1.19,106

3 successive entries already listed, quoted:
Gene,siRNA no.,"total luciferase, z-score","total luciferase, % of control"
NPAS3 (GeneID 64067),3,-0.869,64.6
HSD17B8 (GeneID 7923),1,0.504,91.9
HSD17B8 (GeneID 7923),2,-2.21,38
